Test results published in PMC5404329.
No constants are given. Whether binding was seen depends on the method and setting. In cells and extracts the contact can be indirect. Binding calls can cover weak binding; strength is not graded here.

Sequences of proteins named here, by UniProt entry; tags and fusion partners are left off. A change or cut given only in a name is not applied to a line headed by its entry.
UniProt P09038: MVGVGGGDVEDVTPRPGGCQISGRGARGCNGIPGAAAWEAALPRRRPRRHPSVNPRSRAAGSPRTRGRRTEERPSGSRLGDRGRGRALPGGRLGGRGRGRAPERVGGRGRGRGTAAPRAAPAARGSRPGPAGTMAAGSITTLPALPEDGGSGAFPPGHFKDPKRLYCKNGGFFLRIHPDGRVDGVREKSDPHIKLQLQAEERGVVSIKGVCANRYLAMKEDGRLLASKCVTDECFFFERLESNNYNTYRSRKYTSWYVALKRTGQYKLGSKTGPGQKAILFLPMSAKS

T1: Glypican-2 (human (endogenous in hESC-derived neural progenitor cells)) (UniProt Q8N158)
T1 sequence: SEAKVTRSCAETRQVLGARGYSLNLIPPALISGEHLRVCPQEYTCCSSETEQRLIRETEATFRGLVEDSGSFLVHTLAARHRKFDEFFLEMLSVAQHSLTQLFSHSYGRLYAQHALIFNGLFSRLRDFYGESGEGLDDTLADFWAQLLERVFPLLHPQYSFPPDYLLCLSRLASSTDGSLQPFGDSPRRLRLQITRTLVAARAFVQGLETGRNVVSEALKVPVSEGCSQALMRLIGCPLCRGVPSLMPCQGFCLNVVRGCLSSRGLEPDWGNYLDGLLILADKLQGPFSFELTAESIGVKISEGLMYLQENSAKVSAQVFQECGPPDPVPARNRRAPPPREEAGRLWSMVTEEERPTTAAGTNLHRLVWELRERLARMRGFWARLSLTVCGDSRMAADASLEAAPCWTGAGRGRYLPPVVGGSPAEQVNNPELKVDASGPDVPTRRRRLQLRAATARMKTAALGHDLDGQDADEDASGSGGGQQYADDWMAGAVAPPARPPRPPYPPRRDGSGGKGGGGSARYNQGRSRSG


Experiments:
[1] = target: T1, Glypican-2 (human (endogenous in hESC-derived neural progenitor cells)); experiment: co-IP; immunoprecipitation with the Gpc2-specific antibody (clone 2/43) from NPC lysates pre-incubated with 0, 1, 2.5, 5 and 10 ug/ml free Gpc2 antibody; FGF2 detected by blot in the eluted fractions
[2] = target: Fibroblast Growth Factor 2 (human (endogenous in hESC-derived neural progenitor cells)) (UniProt P09038); experiment: co-IP; reverse immunoprecipitation with an FGF2-specific antibody (Abcam ab126861) from NPC lysate; Gpc2 detected by blot in the bound fraction

Row | Molecule | binding [1] | binding [2]
1 | Fibroblast Growth Factor 2 (from UniProt P09038) (ligand) | binds | 
2 | Glypican-2 (protein, UniProt Q8N158 24-554) SEAKVTRSCAETRQVLGARGYSLNLIPPALISGEHLRVCPQEYTCCSSETEQRLIRETEATFRGLVEDSGSFLVHTLAARHRKFDEFFLEMLSVAQHSLTQLFSHSYGRLYAQHALIFNGLFSRLRDFYGESGEGLDDTLADFWAQLLERVFPLLHPQYSFPPDYLLCLSRLASSTDGSLQPFGDSPRRLRLQITRTLVAARAFVQGLETGRNVVSEALKVPVSEGCSQALMRLIGCPLCRGVPSLMPCQGFCLNVVRGCLSSRGLEPDWGNYLDGLLILADKLQGPFSFELTAESIGVKISEGLMYLQENSAKVSAQVFQECGPPDPVPARNRRAPPPREEAGRLWSMVTEEERPTTAAGTNLHRLVWELRERLARMRGFWARLSLTVCGDSRMAADASLEAAPCWTGAGRGRYLPPVVGGSPAEQVNNPELKVDASGPDVPTRRRRLQLRAATARMKTAALGHDLDGQDADEDASGSGGGQQYADDWMAGAVAPPARPPRPPYPPRRDGSGGKGGGGSARYNQGRSRSG |  | binds
